Assay results published in PMC10734061.
These are yes or no findings as the source states them, for the method shown. Binding seen in cells or lysates may run through a third protein. Some binding calls cover weakened binding; strength is not graded here.

Sequences of proteins named here, by UniProt entry; tags and fusion partners are left off.
UniProt Q99836: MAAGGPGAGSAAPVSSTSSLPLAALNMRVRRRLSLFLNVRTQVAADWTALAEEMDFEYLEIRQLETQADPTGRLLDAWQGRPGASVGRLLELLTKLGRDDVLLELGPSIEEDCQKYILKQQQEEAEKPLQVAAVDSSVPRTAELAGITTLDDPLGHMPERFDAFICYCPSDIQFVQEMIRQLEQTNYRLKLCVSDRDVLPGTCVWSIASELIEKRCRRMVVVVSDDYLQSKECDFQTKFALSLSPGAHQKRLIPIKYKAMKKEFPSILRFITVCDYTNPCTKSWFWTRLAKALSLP

Molecular target: Growth factor receptor bound protein 7 (human (endogenous in AGS)) (UniProt Q14451)
Test: co-IP; AGS cells lysed in IP lysis buffer; antibodies added to the lysate overnight at 4 °C, then beads for 2 h; washed with IP buffer; eluted proteins analysed by Western blot

binding: binds
Substance: Myeloid differentiation primary response 88 (from UniProt Q99836 1-296)
